Data from the supplement of paper PMC12067093, “Discovery and optimisation of a covalent ligand for TRIM25 and its application to targeted protein ubiquitination” (Chemical Science, 2025).
Some of the results follow.

What follows are targets tested with CC1Cc2ccccc2N1C(=O)C1CCCN(C1)C(=O)CCl (mixture of isomers) [TRIM25 ligand 11 (diastereomer mixture)] (assay: probe-labelled cysteine peptide fold change vs DMSO (competition) (log2 fold change); higher = less target engagement (more negative = stronger competition)). Settings: 10 µM; THP-1; incubation time: 4 h.
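Further: competitive chemoproteomic profiling in live THP-1 cells with an iodoacetamide desthiobiotin (IA-DTB) probe, comparing probe-labelled peptide intensities in compound-treated cells against DMSO-treated controls.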

Target | probe-labelled cysteine peptide fold change
KDM3A_Q9Y4C1_251_IVDPSLIHVEVVHDNLVTCGNSAR (UniProt Q9Y4C1) | -0.135
KHNYN_O15037_46_DCPDNPHIWLQLEGPK (UniProt O15037) | 0.0475
ITPK1_Q13572_156_NGLTFPFICK (UniProt Q13572) | -0.337
JMJD1C_Q15652_1721+1722_QTGESFLQDDSCCEIGPNLQK (UniProt Q15652) | 0.0717
KDM1A_O60341_360_CPLYEANGQAVPK (UniProt O60341) | 0.0216
KAT2A_Q92830_815_EYNPPDSEYCR (UniProt Q92830) | -0.124
KAT6A_Q92794_773_LQLNLRPVDVDPECLR (UniProt Q92794) | 0.176
ITPRID2_P28290_887_TLSTHSVPNISGATCSAFASPFGCPYSHR (UniProt P28290) | -0.0404
JMJD6_Q6NYC1_101_CGEDNDGYSVK (UniProt Q6NYC1) | -0.0119
KDM3A_Q9Y4C1_225_TLQVNCEEIPALK (UniProt Q9Y4C1) | -0.195
KAT6B_Q8WYB5_837_GCHLVGYFSK (UniProt Q8WYB5) | 0.152
IVNS1ABP_Q9Y6Y0_482_NCDVFDPVTK (UniProt Q9Y6Y0) | 0.137
KHNYN_O15037_221_SSALLGAQCQGVR (UniProt O15037) | -0.0601
KDM4A_O75164_847_TAGCCVQCSHGR (UniProt O75164) | 0.268
KDM3B_Q7LBC6_1212_AIRPPCPDTAPPSSALHWLADLATQK (UniProt Q7LBC6) | 0.0358
JAK2_O60674_178_VPVTHETQEECLGMAVLDMMR (UniProt O60674) | -0.00582
KDM4A_O75164_844+847_TAGCCVQCSHGR (UniProt O75164) | 0.00224
KIF15_Q9NS87_1335_QVECLAEENGK (UniProt Q9NS87) | -0.024
KDM4A_O75164_798_ANDDRWVHVSCAVAILEAR (UniProt O75164) | 0.167

Target | probe-labelled cysteine peptide fold change
KHDC4_Q7Z7F0_280_GSGCIEPASGR (UniProt Q7Z7F0) | -0.00375
KAT5_Q92993_317_SYSQNLCLLAK (UniProt Q92993) | 0.121
JOSD2_Q8TAC2_24_LELCAVHALNNVLQQQLFSQEAADEICKR (UniProt Q8TAC2) | -0.136
KEAP1_Q14145_489_LNSAECYYPER (UniProt Q14145) | 0.227
KIAA1109_Q2LD37_3091_CVAEVGSFEHNLTTDLLNHLVFVQK (UniProt Q2LD37) | 0.118
KANK1_Q14678_1292_LLLAQPGCNGHLEDNDGSTALSIALEAGHK (UniProt Q14678) | 0.28
ITGB3BP_Q13352_127_ELENLIGISCASHFLK (UniProt Q13352) | 0.151
KDM5A_P29375_1409_SCSQGSSTPR (UniProt P29375) | -0.12
KATNA1_O75449_491_WIFEFGSC (UniProt O75449) | -0.258
KIF15_Q9NS87_1284_EMECLR (UniProt Q9NS87) | -0.0637
IVD_P26440_261_GSNTCELIFEDCK (UniProt P26440) | 0.184
JTB_O76095_85_ITCSSSK (UniProt O76095) | -0.0396
KDELC1_Q6UW63_491+493_VEPQTEDDLFPCTCHR (UniProt Q6UW63) | 0.345
KCNAB2_Q13303_212_QFNLTPPICEQAEYHMFQR (UniProt Q13303) | 0.169
KBTBD11_O94819_257_DAAYCFMSDHYLEVLR (UniProt O94819) | -0.00414
JMJD1C_Q15652_508_CVIDITNDTNLEK (UniProt Q15652) | -0.0651
KDM2B_Q8NHM5_651_QCIAPVLPHTAVCLVCGEAGKEDTVEEEEGK (UniProt Q8NHM5) | -0.06
KDELC1_Q6UW63_493_VEPQTEDDLFPCTCHR (UniProt Q6UW63) | 0.196

Same assay, conditions: 50 µM; THP-1; incubation time: 4 h

Target | probe-labelled cysteine peptide fold change
KDM3A_Q9Y4C1_251_IVDPSLIHVEVVHDNLVTCGNSAR (UniProt Q9Y4C1) | -0.258
KHNYN_O15037_46_DCPDNPHIWLQLEGPK (UniProt O15037) | -0.0573
ITPK1_Q13572_156_NGLTFPFICK (UniProt Q13572) | 0.0508
JMJD1C_Q15652_1721+1722_QTGESFLQDDSCCEIGPNLQK (UniProt Q15652) | 0.0885
KDM1A_O60341_360_CPLYEANGQAVPK (UniProt O60341) | -0.0598
KAT2A_Q92830_815_EYNPPDSEYCR (UniProt Q92830) | -0.152
KAT6A_Q92794_773_LQLNLRPVDVDPECLR (UniProt Q92794) | 0.231
ITPRID2_P28290_887_TLSTHSVPNISGATCSAFASPFGCPYSHR (UniProt P28290) | -0.408
JMJD6_Q6NYC1_101_CGEDNDGYSVK (UniProt Q6NYC1) | -0.111
KDM3A_Q9Y4C1_225_TLQVNCEEIPALK (UniProt Q9Y4C1) | -0.31
KAT6B_Q8WYB5_837_GCHLVGYFSK (UniProt Q8WYB5) | 0.171
IVNS1ABP_Q9Y6Y0_482_NCDVFDPVTK (UniProt Q9Y6Y0) | 0.166
KHNYN_O15037_221_SSALLGAQCQGVR (UniProt O15037) | -0.394
KDM4A_O75164_847_TAGCCVQCSHGR (UniProt O75164) | 0.285
KDM3B_Q7LBC6_1212_AIRPPCPDTAPPSSALHWLADLATQK (UniProt Q7LBC6) | -0.236
JAK2_O60674_178_VPVTHETQEECLGMAVLDMMR (UniProt O60674) | -0.00309
KDM4A_O75164_844+847_TAGCCVQCSHGR (UniProt O75164) | 0.211
KIF15_Q9NS87_1335_QVECLAEENGK (UniProt Q9NS87) | -0.194
KDM4A_O75164_798_ANDDRWVHVSCAVAILEAR (UniProt O75164) | -0.0809

Target | probe-labelled cysteine peptide fold change
KHDC4_Q7Z7F0_280_GSGCIEPASGR (UniProt Q7Z7F0) | 0.0482
KAT5_Q92993_317_SYSQNLCLLAK (UniProt Q92993) | 0.0863
JOSD2_Q8TAC2_24_LELCAVHALNNVLQQQLFSQEAADEICKR (UniProt Q8TAC2) | -0.0632
KEAP1_Q14145_489_LNSAECYYPER (UniProt Q14145) | 0.326
KIAA1109_Q2LD37_3091_CVAEVGSFEHNLTTDLLNHLVFVQK (UniProt Q2LD37) | 0.0787
KANK1_Q14678_1292_LLLAQPGCNGHLEDNDGSTALSIALEAGHK (UniProt Q14678) | 0.277
ITGB3BP_Q13352_127_ELENLIGISCASHFLK (UniProt Q13352) | 0.187
KDM5A_P29375_1409_SCSQGSSTPR (UniProt P29375) | -0.168
KATNA1_O75449_491_WIFEFGSC (UniProt O75449) | 0.00115
KIF15_Q9NS87_1284_EMECLR (UniProt Q9NS87) | 0.00528
IVD_P26440_261_GSNTCELIFEDCK (UniProt P26440) | 0.144
JTB_O76095_85_ITCSSSK (UniProt O76095) | -0.183
KDELC1_Q6UW63_491+493_VEPQTEDDLFPCTCHR (UniProt Q6UW63) | -0.161
KCNAB2_Q13303_212_QFNLTPPICEQAEYHMFQR (UniProt Q13303) | -0.0682
KBTBD11_O94819_257_DAAYCFMSDHYLEVLR (UniProt O94819) | -0.135
JMJD1C_Q15652_508_CVIDITNDTNLEK (UniProt Q15652) | -0.268
KDM2B_Q8NHM5_651_QCIAPVLPHTAVCLVCGEAGKEDTVEEEEGK (UniProt Q8NHM5) | -0.275
KDELC1_Q6UW63_493_VEPQTEDDLFPCTCHR (UniProt Q6UW63) | 0.143
